Measured values reported in patent US20150111822A1.
These are yes or no findings as the source states them, for the method shown. Some entries that bind do so weakly or less than the wild type.

Amino acid sequences for entries named in this document (tags omitted). Residues count along the entry.
UniProt P11276, residues 33-2477: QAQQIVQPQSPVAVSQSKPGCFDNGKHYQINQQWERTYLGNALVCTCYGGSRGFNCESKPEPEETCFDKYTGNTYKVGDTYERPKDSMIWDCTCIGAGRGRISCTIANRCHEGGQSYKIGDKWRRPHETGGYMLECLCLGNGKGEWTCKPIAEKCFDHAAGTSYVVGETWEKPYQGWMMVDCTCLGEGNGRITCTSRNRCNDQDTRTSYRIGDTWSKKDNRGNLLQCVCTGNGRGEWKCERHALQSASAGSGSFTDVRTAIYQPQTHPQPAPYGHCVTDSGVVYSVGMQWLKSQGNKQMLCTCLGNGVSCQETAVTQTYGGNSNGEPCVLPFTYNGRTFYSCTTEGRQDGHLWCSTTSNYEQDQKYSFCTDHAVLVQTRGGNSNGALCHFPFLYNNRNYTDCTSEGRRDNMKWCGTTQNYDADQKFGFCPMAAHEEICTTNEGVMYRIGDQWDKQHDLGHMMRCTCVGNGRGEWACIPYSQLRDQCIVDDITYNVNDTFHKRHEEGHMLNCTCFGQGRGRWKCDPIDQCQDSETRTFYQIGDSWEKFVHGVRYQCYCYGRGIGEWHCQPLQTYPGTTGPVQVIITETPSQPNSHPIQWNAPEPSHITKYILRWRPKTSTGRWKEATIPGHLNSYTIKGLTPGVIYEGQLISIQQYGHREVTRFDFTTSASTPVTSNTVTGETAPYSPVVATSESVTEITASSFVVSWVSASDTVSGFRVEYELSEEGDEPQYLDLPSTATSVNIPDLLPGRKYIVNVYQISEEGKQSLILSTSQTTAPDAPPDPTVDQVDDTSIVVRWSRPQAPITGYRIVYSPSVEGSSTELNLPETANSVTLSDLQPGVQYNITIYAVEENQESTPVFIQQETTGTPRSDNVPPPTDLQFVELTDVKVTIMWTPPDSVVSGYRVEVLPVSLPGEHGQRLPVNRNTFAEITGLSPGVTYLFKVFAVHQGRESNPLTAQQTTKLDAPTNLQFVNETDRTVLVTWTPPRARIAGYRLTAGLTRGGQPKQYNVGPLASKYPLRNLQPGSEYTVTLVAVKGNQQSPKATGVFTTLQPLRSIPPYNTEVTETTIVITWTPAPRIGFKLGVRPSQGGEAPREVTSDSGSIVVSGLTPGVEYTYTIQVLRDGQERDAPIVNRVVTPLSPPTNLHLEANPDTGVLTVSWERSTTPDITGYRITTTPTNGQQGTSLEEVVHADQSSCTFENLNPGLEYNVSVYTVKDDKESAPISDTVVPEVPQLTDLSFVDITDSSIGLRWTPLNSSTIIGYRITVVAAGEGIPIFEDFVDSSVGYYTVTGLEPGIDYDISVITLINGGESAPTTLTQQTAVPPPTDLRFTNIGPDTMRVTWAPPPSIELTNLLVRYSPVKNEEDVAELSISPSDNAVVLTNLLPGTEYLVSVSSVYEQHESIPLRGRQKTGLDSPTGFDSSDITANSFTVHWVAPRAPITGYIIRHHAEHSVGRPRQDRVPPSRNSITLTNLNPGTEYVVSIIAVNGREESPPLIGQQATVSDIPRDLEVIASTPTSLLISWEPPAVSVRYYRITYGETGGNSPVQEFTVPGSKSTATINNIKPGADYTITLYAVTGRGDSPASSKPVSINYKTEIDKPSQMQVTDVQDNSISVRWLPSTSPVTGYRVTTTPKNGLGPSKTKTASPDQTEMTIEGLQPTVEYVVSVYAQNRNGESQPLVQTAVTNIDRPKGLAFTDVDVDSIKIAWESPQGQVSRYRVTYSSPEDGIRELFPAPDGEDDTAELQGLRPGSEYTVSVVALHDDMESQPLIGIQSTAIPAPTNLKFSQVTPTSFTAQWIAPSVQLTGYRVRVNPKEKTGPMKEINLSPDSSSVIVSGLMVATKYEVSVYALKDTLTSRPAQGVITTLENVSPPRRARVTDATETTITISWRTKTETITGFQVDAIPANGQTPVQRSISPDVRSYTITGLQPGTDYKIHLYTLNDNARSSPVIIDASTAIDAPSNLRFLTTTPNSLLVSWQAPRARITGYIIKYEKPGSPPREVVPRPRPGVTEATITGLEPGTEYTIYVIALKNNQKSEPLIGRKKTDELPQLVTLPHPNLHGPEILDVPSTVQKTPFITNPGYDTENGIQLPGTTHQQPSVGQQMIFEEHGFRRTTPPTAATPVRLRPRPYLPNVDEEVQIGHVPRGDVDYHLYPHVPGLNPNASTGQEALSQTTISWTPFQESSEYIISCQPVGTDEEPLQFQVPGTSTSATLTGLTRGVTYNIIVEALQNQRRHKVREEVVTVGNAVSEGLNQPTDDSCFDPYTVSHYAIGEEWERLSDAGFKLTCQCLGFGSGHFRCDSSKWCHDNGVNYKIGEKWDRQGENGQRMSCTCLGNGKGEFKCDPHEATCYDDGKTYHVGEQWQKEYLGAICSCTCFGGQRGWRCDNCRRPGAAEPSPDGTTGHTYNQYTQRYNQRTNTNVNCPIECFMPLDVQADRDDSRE

Assays:
[1] = biological target: T1, endogenous Syndecan 4 (Sdc4) on mouse satellite cells and primary myoblasts (mouse) (UniProt O35988); assay: immunostaining co-localisation on 42 h activated satellite cells on floating fibers (FIG. 9C)
T1 sequence (looked up): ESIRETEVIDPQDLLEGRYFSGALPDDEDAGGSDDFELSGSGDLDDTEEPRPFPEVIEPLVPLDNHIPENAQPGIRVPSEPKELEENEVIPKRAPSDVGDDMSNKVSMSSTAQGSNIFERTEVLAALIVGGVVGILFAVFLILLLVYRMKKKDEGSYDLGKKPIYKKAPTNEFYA

[2] = biological target: T1, endogenous Syndecan 4 (Sdc4) on mouse satellite cells and primary myoblasts (mouse); assay: in-situ PLA (FIG. 19C)
[3] = biological target: T1, endogenous Syndecan 4 (Sdc4) on mouse satellite cells and primary myoblasts (mouse); assay: in-situ PLA with Sdc4 and FN antibodies on satellite cells on cultured myofibers; reactivity abrogated by siSdc4
[4] = biological target: T1, endogenous Syndecan 4 (Sdc4) on mouse satellite cells and primary myoblasts (mouse); assay: immunostaining co-localisation (FIG. 9C)

Measured: binding

fibronectin (FN) on activated satellite cells in myofiber culture (from UniProt P11276 33-2477) (ligand)
binds: [1] | [2] | [3] | [4]
